Source: patent US20250382287A1, “PHARMACEUTICALLY ACCEPTABLE SALT AND CRYSTAL FORM OF NITROGEN-CONTAINING BRIDGE HETEROCYCLIC DERIVATIVE, AND METHOD FOR PREPARING SAME” (JIANGSU HENGRUI PHARMACEUTICALS CO., LTD., priority 2022, published 2025)
Further values from the same series stand in other lists.

Assay: Long-term/accelerated stability (sealed, 25° C./60% RH and 40° C./75% RH)
[1] = 25° C., 60% RH, sealed, 1 month
[2] = 25° C., 60% RH, sealed, 2 months
[3] = 40° C., 75% RH, sealed, 1 month
[4] = 40° C., 75% RH, sealed, 2 months
[5] = 40° C., 75% RH, sealed, 3 months
[6] = 40° C., 75% RH, sealed, 6 months

## CCO[C@H]1C[C@H]2CC[C@@](c3ccc(C(=O)O)cc3)(C1)N2Cc1c(OC)cc(C)c2[nH]ccc12.Cl [crystal form II of the hydrochloride, 4-((1S,3S,5R)-3-ethoxy-8-((5-methoxy-7-methyl-1H-indol-4-yl)methyl)-8-azabicyclo[3.2.1]octan-1-yl)benzoic acid-hydrochloride]
[1]
  Salt form: No change
[2]
  Salt form: No change
[3]
  Salt form: No change
[4]
  Salt form: No change
[5]
  Salt form: No change
[6]
  Salt form: No change
Initial
  Salt form: Crystal form II

## CCO[C@H]1C[C@H]2CC[C@@](c3ccc(C(=O)O)cc3)(C1)N2Cc1c(OC)cc(C)c2[nH]ccc12.O=P(O)(O)O [crystal form II of the phosphate, 4-((1S,3S,5R)-3-ethoxy-8-((5-methoxy-7-methyl-1H-indol-4-yl)methyl)-8-azabicyclo[3.2.1]octan-1-yl)benzoic acid-phosphate]
[1]
  Salt form: No change
[2]
  Salt form: No change
[3]
  Salt form: No change
[4]
  Salt form: No change
Initial
  Salt form: Crystal form II

## CCO[C@H]1C[C@H]2CC[C@@](c3ccc(C(=O)O)cc3)(C1)N2Cc1c(OC)cc(C)c2[nH]ccc12.Cl [crystal form III of the hydrochloride, 4-((1S,3S,5R)-3-ethoxy-8-((5-methoxy-7-methyl-1H-indol-4-yl)methyl)-8-azabicyclo[3.2.1]octan-1-yl)benzoic acid-hydrochloride]
[1]
  Salt form: No change
[2]
  Salt form: No change
25° C., 60% RH, sealed, 3 months
  Salt form: No change
25° C., 60% RH, sealed, 6 months
  Salt form: No change
[3]
  Salt form: No change
[4]
  Salt form: No change
[5]
  Salt form: No change
[6]
  Salt form: No change
Initial
  Salt form: Crystal form III
